Reference: PubChem BioAssay AID1259425 (University of Nebraska Medical Center, 2018)
Screen: 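Compare each knockdown with KSR1 silencing using changes in marker transcripts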 (primary screen). Cell system: HCT116 human colon cancer cells. Reagents: siRNA pool against human genes, 50 nM siRNA. Measured: 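After 50 nM siRNA pool, branched-DNA assay measures six marker transcripts per well, minus blank, normalised to the geometric mean of two housekeeping transcripts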. Reading the numbers: BNIP3L mRNA: higher = more BNIP3L transcript after knockdown; NDRG1 mRNA: higher = more NDRG1 transcript after knockdown; BNIP3 mRNA: higher = more BNIP3 transcript after knockdown; ALDOC mRNA: higher = more ALDOC transcript after knockdown; ACSL5 mRNA: higher = more ACSL5 transcript after knockdown.
The whole screen tested about 14,000 reagents; shown is a random part of them. The numbers tell different reagents against one gene apart. Not stated in the record: the time to read-out.

The opening 6 records, to show the layout:
Target gene	pool no.	BNIP3L mRNA, set 1	NDRG1 mRNA, set 1	BNIP3 mRNA, set 1	ALDOC mRNA, set 1	ACSL5 mRNA, set 1
TTC3	1	0.085	0.168	0.389	0.0278	0.231
KLK4	1	0.0666	0.274	0.321	0.0259	0.168
MATN1	1	0.152	0.941	0.277	0.0498	0.311
RILP	1	0.468	0.96	0.407	0.142	0.497
CHRNA2	1	0.102	0.157	0.207	0.015	0.0824
ETFDH	1	0.0836	0.164	0.343	0.0295	0.193

Main list, from the start:
Target gene	pool no.	BNIP3L mRNA, set 1	NDRG1 mRNA, set 1	BNIP3 mRNA, set 1	ALDOC mRNA, set 1	ACSL5 mRNA, set 1
TTC3	1	0.085	0.168	0.389	0.0278	0.231
KLK4	1	0.0666	0.274	0.321	0.0259	0.168
MATN1	1	0.152	0.941	0.277	0.0498	0.311
RILP	1	0.468	0.96	0.407	0.142	0.497
CHRNA2	1	0.102	0.157	0.207	0.015	0.0824
ETFDH	1	0.0836	0.164	0.343	0.0295	0.193
RAB11B	1	0.149	0.173	0.32	0.0409	0.35
ARHGAP6	1	0.0625	0.133	0.23	0.0149	0.183
MPP2	1	0.0778	0.183	0.314	0.0152	0.203
KPNA4	1	0.0353	0.124	0.283	0.0269	0.0654
C3AR1	1	0.226	0.377	0.492	0.0437	0.2
RHEB	1	0.0373	0.645	0.284	0.0317	0.37
KCNH6	1	0.286	0.332	0.453	0.0345	0.118
SACM1L	1	0.126	0.29	0.265	0.0118	0.14
CABP5	1	0.153	0.105	0.385	0.0334	0.0689
SLC35F2	1	0.24	0.272	0.422	0.0507	0.324
HLA-DRB1	1	0.14	0.23	0.23	0.0264	0.0685
FOXP1	1	0.0903	0.14	0.326	0.0316	0.282
DOLK	1	0.266	0.502	0.326	0.0372	0.23
CD1A	1	0.153	0.191	0.289	0.067	0.245
CCDC25	1	0.0582	0.707	0.354	0.0457	0.201
SIRAL2	1	0.268	0.211	0.32	0.0178	0.247
HNF1B	1	0.0869	0.15	0.291	0.00967	0.157
BFSP1	1	0.116	0.234	0.242	0.0358	0.121
PLPP7	1	0.0824	0.393	0.347	0.0275	0.258
SVEP1	1	0.268	0.108	0.437	0.0858	0.159
MAL	1	0.131	0.407	0.207	0.00829	0.247
DNM1L	1	0.0577	0.162	0.391	0.0171	0.22
SEMA3G	1	0.165	0.277	0.429	0.104	0.265
VSX1	1	0.123	0.153	0.335	0.0111	0.285
SLCO4A1	1	0.04	0.119	0.27	0.00532	0.0865
TDRKH	1	0.0963	0.685	0.332	0.0431	0.0907
COBLL1	1	0.0901	0.0695	0.267	0.0103	0.0898
EPCAM	1	0.0587	0.172	0.36	0.0255	0.207
KRT6A	1	0.134	0.0946	0.338	0.041	0.148
KRT6A	2	0.127	0.087	0.297	0.0355	0.123
PAX5	1	0.0978	0.058	0.197	0.00893	0.112
SUMO3	1	0.0976	0.151	0.429	0.0402	0.276
MIP	1	0.115	0.184	0.286	0.0437	0.165
PTPN2	1	0.0795	0.0957	0.222	0.0234	0.163
ERI3	1	0.0619	0.126	0.339	0.0179	0.0898
PCSK2	1	0.249	0.402	0.553	0.0621	0.189
CACNB4	1	0.214	0.338	0.358	0.0299	0.511
TGFB1	1	0.0907	0.299	0.307	0.0297	0.134
HNMT	1	0.0739	0.0583	0.205	0.00839	0.0953
TMEM108	1	0.226	0.302	0.412	0.024	0.307
FIP1L1	1	0.143	0.788	0.367	0.0639	0.437
RHOBTB3	1	0.0739	0.141	0.271	0.0324	0.113
FGF10	1	0.0853	0.14	0.275	0.0339	0.141
PDLIM5	1	0.0542	0.11	0.369	0.00199	0.194
KRTAP3-1	1	0.321	0.561	0.395	0.105	0.531
UBE2C	1	0.0607	0.141	0.314	0.021	0.321
RPL26L1	1	0.115	0.122	0.533	0.0401	0.102
CEACAM5	1	0.05	0.111	0.308	0.0145	0.0787
RUVBL2	1	0.113	0.285	0.232	0.0517	0.187
ITGA4	1	0.0611	0.0697	0.232	0.0247	0.116
RAP1A	1	0.115	0.115	0.268	0.0221	0.0973
HM13	1	0.0743	0.0513	0.206	0.0287	0.105
AVL9	1	0.0891	0.188	0.254	0.0248	0.214
PCDHA8	1	0.0453	0.0856	0.233	0.0101	0.106
VPS4A	1	0.0835	0.0299	0.31	0.00946	0.099
MYO19	1	0.106	0.428	0.414	0.0528	0.311
DDB2	1	0.102	0.074	0.299	0.0111	0.124
